PubChem BioAssay AID504793, Drosophila RNAi Screening Center, 2011

Test: 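Genes required for cells to halt at G2/M after double-strand DNA breaks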 (primary screen)
Cell system: Drosophila S2R+ cells
Reagent: long dsRNA against Drosophila genes, about 0.25 µg dsRNA per well
Time to read-out: 4 days of dsRNA, then 4 hours of drug before read-out
Conditions: doxorubicin 0.5 µM for 4 hours to cause double-strand breaks, in cells also given a low, harmless dose of dsRNA against nbs to sensitise the assay
Measurement: 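Mitotic index as the number of phospho-histone H3-positive cells in each well following doxorubicin, given as raw counts without normalisation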
Scale: mitotic cells: higher = more cells in mitosis, weaker G2 arrest
Call rule: 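Genes are called active only when high mitotic counts were reproduced with independent dsRNAs and mitosis was checked for delay without damage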
Meaning of the calls: active = confirmed in follow-up tests; inactive = not confirmed
In all, the deposit lists about 23,000 reagents; this is a random part of those that have a named target and a result. In the full data, 62 (0.27%) are marked active. 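Calls come from follow-up tests whose scores are not deposited, so confirmed genes may have low counts here; counts are not normalised per plate.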 Raw values are not corrected between plates. Entries without a mark were called inactive. Reagent sequences are not shown.

Against Myb (Myb oncogene-like) [DRSC20260] the deposit lists mitotic cells, replicate 1 = 7.
With knock-down of CRIF (CR6-interacting factor) [DRSC11811], the screen gave mitotic cells, replicate 1 = 4.
CRIF (CR6-interacting factor) [DRSC26514] showed mitotic cells, replicate 1 = 5.
Silencing of CG12991 [DRSC19511] came out at: mitotic cells, replicate 1 = 12.
After knock-down of CG12991 [DRSC28165] the results were mitotic cells, replicate 1 = 10.
Against Pxt (Peroxinectin-like) [DRSC17040], the entry reads mitotic cells, replicate 1 = 4.
After knock-down of OtopLb (Otopetrin-like b) [DRSC00594] the results were mitotic cells, replicate 1 = 8.
With knock-down of OtopLb (Otopetrin-like b) [DRSC27337] the results were mitotic cells, replicate 1 = 5.
Spn38F (Serpin 38F) [DRSC03616] gave mitotic cells, replicate 1 = 7.
Against Spn38F (Serpin 38F) [DRSC24629], the entry reads mitotic cells, replicate 1 = 10.
CG3534 [DRSC15494] scored mitotic cells, replicate 1 = 5.
CG3534 [DRSC26023] gave mitotic cells, replicate 1 = 8.
After knock-down of CG15461 [DRSC20532], the record shows mitotic cells, replicate 1 = 6.
cnir (cornichon related) [DRSC00499] gave mitotic cells, replicate 1 = 4.
cnir (cornichon related) [DRSC26787] gave mitotic cells, replicate 1 = 10.
CG11342 [DRSC08175] scored mitotic cells, replicate 1 = 1.
Silencing of CG11342 [DRSC26281] resulted in: mitotic cells, replicate 1 = 3.
Against Cyp6t3 (Cytochrome P450 6t3) [DRSC07388], the entry reads mitotic cells, replicate 1 = 5.
Depletion of eIF4E3 (eukaryotic translation initiation factor 4E3) [DRSC10952] resulted in: mitotic cells, replicate 1 = 6.
With knock-down of CG40378 (retired record) [DRSC22174] the results were mitotic cells, replicate 1 = 9.
Rga (Regena) [DRSC12364] scored mitotic cells, replicate 1 = 6.
Rga (Regena) [DRSC29179] scored mitotic cells, replicate 1 = 10.
After knock-down of c-cup (calcutta cup) [DRSC00458], the screen gave mitotic cells, replicate 1 = 6.
CG2681 [DRSC18464] showed mitotic cells, replicate 1 = 4.
Knock-down of CG2681 [DRSC24864] gave: mitotic cells, replicate 1 = 5.
Calx (Na/Ca-exchange protein) [DRSC13457] scored mitotic cells, replicate 1 = 4.
After knock-down of Calx (Na/Ca-exchange protein) [DRSC13459] the results were mitotic cells, replicate 1 = 11.
Silencing of Calx (Na/Ca-exchange protein) [DRSC16599] resulted in: mitotic cells, replicate 1 = 9.
Silencing of Calx (Na/Ca-exchange protein) [DRSC21850] came out at: mitotic cells, replicate 1 = 19.
After knock-down of Calx (Na/Ca-exchange protein) [DRSC24386] the results were mitotic cells, replicate 1 = 10.
beg (bad egg) [DRSC10923] scored mitotic cells, replicate 1 = 6.
Against nop5 [DRSC03582] the deposit lists mitotic cells, replicate 1 = 7.
With knock-down of CG34109 [DRSC02169], the screen gave mitotic cells, replicate 1 = 2.
Knock-down of CG34109 [DRSC02224] came out at: mitotic cells, replicate 1 = 5.
Silencing of CG34109 [DRSC02225] resulted in: mitotic cells, replicate 1 = 5.
Depletion of CG34109 [DRSC26977] gave: mitotic cells, replicate 1 = 4.
CG34109 [DRSC30104] gave mitotic cells, replicate 1 = 3.
d-cup (davis-cup) [DRSC14846] gave mitotic cells, replicate 1 = 13.
With knock-down of CG1941 [DRSC06802], the record shows mitotic cells, replicate 1 = 7.
Silencing of lncRNA:CR32730 (long non-coding RNA:CR32730) [DRSC22957] came out at: mitotic cells, replicate 1 = 9.
Against sphinx2 [DRSC22188] the deposit lists mitotic cells, replicate 1 = 2.
After knock-down of sphinx2 [DRSC24771], the record shows mitotic cells, replicate 1 = 6.
CG14285 [DRSC14766] scored mitotic cells, replicate 1 = 9.

Entries above whose target name begins with R or r:
Rga (Regena) [DRSC12364]: mitotic cells, replicate 1 = 6
Rga (Regena) [DRSC29179]: mitotic cells, replicate 1 = 10
